Assay results from PMC7765489, “Structural Characterization of Glycerol Kinase from the Thermophilic Fungus Chaetomium thermophilum” (International Journal of Molecular Sciences, 2020).
Results are given in words; binding and its absence hold for the method and conditions named. Some entries that bind do so weakly or less than the wild type.

How the values were obtained:
[1] = molecular target: glycerol kinase from Chaetomium thermophilum (Chaetomium thermophilum) (UniProt G0SAG9); assay: crystal structure; sitting-drop vapor diffusion at 293 K, 0.2 M CaCl2 and 18% PEG 3350; apo (ethylene glycol cryoprotectant) and glycerol-bound crystals, five space groups; in P3(2)21 and P222(1) the dimer is completed by a symmetry-related chain; both purified
[2] = molecular target: glycerol kinase from Chaetomium thermophilum (Chaetomium thermophilum) (UniProt G0SAG9); assay: SEC; analytical gel filtration of CtGK in the presence of fructose-1,6-bisphosphate (FBP); conditions not shown; both purified

- binding [1]: binds
- binding [2]: binds
B1: glycerol kinase from Chaetomium thermophilum (enzyme, UniProt G0SAG9 67-590, looked up)
chain: FVGSIDQGTTSSRFLIFNGEGNPVASHQIEFENLYPKSGWHEQDPYELLNSVQQCIDGAMHKFASLGYSKENIRAIGITNQRETTVVWDSVTGEPLHNAIVWPDTRTSALVRELKARQSADSLLELCGLPLSTYPSSVKLLWLIQNVDAVKQAYEEGRLAFGTVDSWLIYKLNGGAQAERPIHVTDSTNASRTMFMNLRTLQYDDKLLGFFGIDRNKIKLPKIVPSSDPEAFGKVATGALAGVPIAGCLGDQSSALVGQCGFSPGQAKNTYGTGCFLLYNVGTEPVISKYGLLATVAYDFGRGRKPVYALEGSIAVAGAGITFLMNNLGFAPKPSEINALAESVLDNGGVVFVTAFSGLFAPYWIDDAKGTLFGITQHTTKGHIARATLEATCYQTRAILDAMEKDSGHKLESLAVDGGLSASDLCMQTQADISGIPVDRPRMRETTALGAAIAAGLATGVWRELDHVKESIAGGANGNGKKNAREVFYPKMDRKKAERLFRKWEQAVEMSRGWVREQEEEDGE
notes: glycerol kinase, Chaetomium thermophilum, UniProt G0SAG9, residues 67-590; codon-optimised synthetic gene in pET24d with N-terminal His-Tag and TEV site; The crystal models begin at residue 65 (67 for chain B) although the construct is stated as 67-590; also called CtGK; GK; source: E. coli BL21 (DE3), purified (Ni-Sepharose, TEV cleavage, second Ni-Sepharose, gel filtration on Superdex 75); not …
